Data published in patent publication US5962533A, “Hydroxy polyamines” (priority 1996, dated 1999).
Where a name gives a salt, the structure may show the parent alone.

System: L1210 cells
Experiment: Polyamine pool analysis in analogue-treated L1210 cells (HPLC)
Format: cell-based, Murine
Protocol: Polyamine Pool Analysis. While in logarithmic growth, cells were treated with the polyamine derivatives. […] Each supernatant was frozen at -20° C. until analysis by HPLC.

SMILES: CCNCC[C@@H](O)CNCCCCNC[C@H](O)CCNCC [(HO)2 DEHSPM, N^1,N^14 -Diethyl-3(R),12(R)-dihydroxyhomospermine tetrahydrochloride]
- intracellular concentration of analogue (L1210 cells, 0.7 μm (0.4*Ki) for 4 hours): 1.3 mm
- Analogue amount in cells (L1210 cells, 0.7 μm analogue): 1.32 nmol/10^6 cells
- intracellular concentration of analogue (L1210 cells, 3.5 μm (2*Ki)): 2.7 mm
- Analogue amount in cells (L1210 cells, 3.5 μm analogue): 2.73 nmol/10^6 cells

SMILES: CCNCCCCNCCCCNCCCCNCC [DEHSPM, Diethylhomospermine]
- intracellular concentration of analogue (L1210 cells grown in 10 μm for 48 hours): 2.94 mm
- Analogue amount in cells (L1210 cells, 10 μm analogue): 2.94 nmol/10^6 cells
